Results published in publication PMC6529775.
These are yes or no findings as the source states them, for the method shown. In cells and extracts the contact can be indirect. Some results given as binding are weak or reduced against the parent protein; the word gives no strength. Values belong to the molecule of their own block, whether it stands above or below them.

Protein sequences, listed by entry. Tags and fused reporters are not part of them.
UniProt Q8R4B8: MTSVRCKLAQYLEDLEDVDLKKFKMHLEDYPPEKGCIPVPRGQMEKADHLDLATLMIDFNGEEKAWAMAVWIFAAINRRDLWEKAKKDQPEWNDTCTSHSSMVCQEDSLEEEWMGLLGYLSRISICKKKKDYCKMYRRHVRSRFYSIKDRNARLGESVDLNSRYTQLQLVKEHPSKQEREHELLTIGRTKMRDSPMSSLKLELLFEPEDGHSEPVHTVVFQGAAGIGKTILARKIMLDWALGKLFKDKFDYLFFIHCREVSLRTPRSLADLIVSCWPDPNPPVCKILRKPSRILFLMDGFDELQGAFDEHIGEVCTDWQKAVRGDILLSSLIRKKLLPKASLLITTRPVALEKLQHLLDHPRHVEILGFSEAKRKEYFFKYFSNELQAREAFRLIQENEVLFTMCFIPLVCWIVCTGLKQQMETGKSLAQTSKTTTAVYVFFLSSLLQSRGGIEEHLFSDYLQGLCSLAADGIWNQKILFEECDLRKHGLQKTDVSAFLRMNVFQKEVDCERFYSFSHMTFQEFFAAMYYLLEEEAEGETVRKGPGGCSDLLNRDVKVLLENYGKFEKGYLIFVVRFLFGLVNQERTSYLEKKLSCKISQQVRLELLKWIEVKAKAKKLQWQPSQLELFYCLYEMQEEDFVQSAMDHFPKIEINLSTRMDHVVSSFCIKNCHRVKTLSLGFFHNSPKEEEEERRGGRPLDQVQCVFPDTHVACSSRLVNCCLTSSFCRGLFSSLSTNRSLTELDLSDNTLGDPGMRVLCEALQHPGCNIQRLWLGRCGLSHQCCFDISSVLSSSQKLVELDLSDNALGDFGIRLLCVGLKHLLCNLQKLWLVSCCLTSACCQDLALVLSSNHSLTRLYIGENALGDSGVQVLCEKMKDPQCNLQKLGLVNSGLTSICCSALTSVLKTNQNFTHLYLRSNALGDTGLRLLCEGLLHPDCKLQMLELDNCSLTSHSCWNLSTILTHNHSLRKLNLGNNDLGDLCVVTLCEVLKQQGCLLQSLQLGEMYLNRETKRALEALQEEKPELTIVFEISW

Target: T1, Thioredoxin-interacting protein (TXNIP) (mouse (endogenous in heart tissue)) (UniProt Q8BG60)
T1 sequence: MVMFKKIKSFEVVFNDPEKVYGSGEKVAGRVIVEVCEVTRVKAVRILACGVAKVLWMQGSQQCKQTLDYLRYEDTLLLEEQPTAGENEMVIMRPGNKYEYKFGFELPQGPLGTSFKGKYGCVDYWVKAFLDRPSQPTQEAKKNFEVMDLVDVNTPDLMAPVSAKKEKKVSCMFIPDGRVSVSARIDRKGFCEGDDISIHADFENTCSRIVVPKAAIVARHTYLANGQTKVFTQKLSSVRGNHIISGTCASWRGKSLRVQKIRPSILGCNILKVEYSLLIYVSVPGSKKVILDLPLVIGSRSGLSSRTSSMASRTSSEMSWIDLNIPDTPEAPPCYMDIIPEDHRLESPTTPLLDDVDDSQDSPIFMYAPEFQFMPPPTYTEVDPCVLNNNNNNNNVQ
Test: co-IP; 1 mg total protein lysate of mouse left ventricle tissue (WT or STING knockout, sham or LPS 10 mg/kg for 12 h); IP with anti-TXNIP (rabbit IgG control), Protein A/G PLUS-Agarose, 4 °C; blotted with anti-NLRP3, anti-Trx and anti-TXNIP

binding: binds
Molecule: NOD-like receptor protein 3 (NLRP3) (from UniProt Q8R4B8 1-1033)

binding: binds
B1: thioredoxin (Trx) (protein, UniProt P10639 1-105)
chain: MVKLIESKEAFQEALAAAGDKLVVVDFSATWCGPCKMIKPFFHSLCDKYSNVVFLEVDVDDCQDVAADCEVKCMPTFQFYKKGQKVGEFSGANKEKLEASITEYA
